Record: PubChem BioAssay AID1259278 (Sanger Institute, 2017)

- Aim: 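Knock-downs synthetic lethal with BYL719, cetuximab or trametinib in colorectal cancer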 (follow-up of hits)
- System: human HT55 colorectal cancer cells
- Knock-down reagent: single siRNA against human genes
- Conditions: anchor drugs added to knock-down cells: cetuximab 5 µg/ml, trametinib 10 nM or BYL719 1 µM, against DMSO vehicle; chosen to hurt viability little alone
- Measured: 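Per-replicate viability normalised to control pool 2 (non-targeting) then averaged, and for every anchor drug a computed synergy score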
- Scale: synergy score with BYL719 and synergy score with cetuximab and synergy score with trametinib: higher = stronger combined killing with knock-down
- Active means: 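a knock-down is called active when its synergy score is above 0.10 for one or more anchor drugs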
- Meaning of the calls: active = synergy with an anchor drug; inactive = no synergy
The deposit covers 160 reagents; shown is a part drawn at random. Over the whole deposit, 54 (34%) were called active. 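Each call rests on one siRNA duplex in one cell line; gene-level support needs several duplexes and lines.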 The numbers tell different reagents against one gene apart. Not all columns of the deposit are shown. Not given: the amount of reagent, the time to read-out.

target gene | reagent no. | synergy score with BYL719 | synergy score with cetuximab | synergy score with trametinib | activity call
HSPB8 | 1 | 0.0106 | 0.0328 | 0.191 | active
HSPB8 | 2 | -0.0934 | -0.0782 | -0.0703 | inactive
HSPB8 | 3 | -0.286 | -0.0567 | 0.032 | inactive
HSPB8 | 4 | -0.321 | 0.189 | 0.212 | active
MPP3 | 1 | -0.118 | 0.0479 | -0.143 | inactive
MPP3 | 2 | -0.11 | -0.177 | 0.0666 | inactive
MPP3 | 3 | -0.0215 | -0.0813 | 0.144 | active
MPP3 | 4 | -0.0268 | 0.103 | 0.0547 | active
AK2 | 1 | -0.206 | 0 | -0.0384 | inactive
AK2 | 2 | -0.231 | -0.177 | -0.0106 | inactive
AK2 | 3 | 0.0936 | 0.0457 | -0.0486 | inactive
AK2 | 4 | -0.301 | -0.211 | 0.0865 | inactive
PLK1 | 1 | 0.0442 | -0.00326 | 0.0324 | inactive
PLK1 | 2 | -0.0826 | -0.0269 | -0.0413 | inactive
PLK1 | 3 | -0.021 | 0.065 | 0.03 | inactive
PLK1 | 4 | 0.0171 | 0.0172 | -0.0368 | inactive
MAPK4 | 1 | -0.0422 | 0.154 | 0.0611 | active
MAPK4 | 2 | 0.0428 | 0.123 | 0.143 | active
MAPK4 | 3 | -0.0274 | 0.188 | 0.0696 | active
MAPK4 | 4 | -0.158 | -0.0409 | -0.034 | inactive
PIK3CA | 1 | 0.0977 | 0.00623 | 0.0653 | inactive
PIK3CA | 2 | -0.0255 | 0.0353 | 0.0185 | inactive
PIK3CA | 3 | -0.0319 | -0.0863 | 0.0684 | inactive
PIK3CA | 4 | -0.0521 | 0.216 | 0.152 | active

Just “synergy score with trametinib”, for 2 of the entries above:
MAPK4 #1 = 0.0611
MAPK4 #2 = 0.143
